{"source": "PubChem BioAssay AID1259331 (Drosophila RNAi Screening Center, 2017)", "screen": "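Knock-downs that alter ATP level after a high zinc chloride dose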 (primary screen)", "cell system": "Drosophila S2R+ cells", "knock-down reagent": "long dsRNA against Drosophila genes", "duration": "5 days (4 days knock-down, then 1 day zinc)", "treatment": "zinc chloride at 15 mM final level for 1 day", "measurement": "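Luminescent ATP assay standing in for viability; Z score is the mean over three replicate plates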", "scale": "mean Z score: higher = more ATP than other wells, better survival under zinc; ATP luminescence: higher = more ATP, more viable cells", "active means": "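Hit when the absolute Z score is greater than 1.5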", "meaning of the calls": "active = hit, ATP up or down; inactive = not a hit", "note": "This is an unselected part of about 3,100 reagents. 126 of them (4.1%) count as active. 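Calls are per reagent; zinc was so toxic that few knock-downs lowered ATP further, so most hits raise ATP.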 The raw values are shown without normalisation. A plus sign joins genes that one reagent is predicted to hit. No sequences are given here. Not given: the amount of reagent."}
{"target": "Or9a", "dsRNA": "DRSC18692", "mean Z score": -0.299, "ATP luminescence, replicate 1": 60100, "ATP luminescence, replicate 2": 62107, "outcome": "inactive"}
{"target": "Or9a", "dsRNA": "DRSC28277", "mean Z score": 0.52, "ATP luminescence, replicate 1": 73717, "ATP luminescence, replicate 2": 65005, "outcome": "inactive"}
{"target": "Atf-2 + CG44247", "dsRNA": "DRSC04130", "mean Z score": 0.404, "ATP luminescence, replicate 1": 33044, "ATP luminescence, replicate 2": 35239, "outcome": "inactive"}
{"target": "Atf-2 + CG44247", "dsRNA": "DRSC04413", "mean Z score": 0.107, "ATP luminescence, replicate 1": 50921, "ATP luminescence, replicate 2": 40485, "outcome": "inactive"}
{"target": "Vha100-4", "dsRNA": "DRSC16282", "mean Z score": 0.054, "ATP luminescence, replicate 1": 36936, "ATP luminescence, replicate 2": 59569, "outcome": "inactive"}
{"target": "Vha100-4", "dsRNA": "DRSC26139", "mean Z score": 0.775, "ATP luminescence, replicate 1": 63393, "ATP luminescence, replicate 2": 64936, "outcome": "inactive"}
{"target": "Hmgcr", "dsRNA": "DRSC16704", "mean Z score": -0.0327, "ATP luminescence, replicate 1": 38548, "ATP luminescence, replicate 2": 58335, "outcome": "inactive"}
{"target": "Cad88C", "dsRNA": "DRSC15486", "mean Z score": -0.256, "ATP luminescence, replicate 1": 39837, "ATP luminescence, replicate 2": 56825, "outcome": "inactive"}
{"target": "Cad88C", "dsRNA": "DRSC26126", "mean Z score": 0.0878, "ATP luminescence, replicate 1": 55813, "ATP luminescence, replicate 2": 60203, "outcome": "inactive"}
{"target": "Shaw", "dsRNA": "DRSC00433", "mean Z score": -0.324, "ATP luminescence, replicate 1": 48732, "ATP luminescence, replicate 2": 38650, "outcome": "inactive"}
{"target": "Shaw", "dsRNA": "DRSC00788", "mean Z score": 0.146, "ATP luminescence, replicate 1": 61798, "ATP luminescence, replicate 2": 75295, "outcome": "inactive"}
{"target": "Shaw", "dsRNA": "DRSC21368", "mean Z score": 0.131, "ATP luminescence, replicate 1": 49324, "ATP luminescence, replicate 2": 48202, "outcome": "inactive"}
{"target": "CG7573", "dsRNA": "DRSC10884", "mean Z score": 0.141, "ATP luminescence, replicate 1": 78623, "ATP luminescence, replicate 2": 60460, "outcome": "inactive"}
{"target": "ItgaPS5", "dsRNA": "DRSC04501", "mean Z score": 0.267, "ATP luminescence, replicate 1": 52658, "ATP luminescence, replicate 2": 39508, "outcome": "inactive"}
{"target": "ItgaPS5", "dsRNA": "DRSC28842", "mean Z score": -0.0784, "ATP luminescence, replicate 1": 61884, "ATP luminescence, replicate 2": 58454, "outcome": "inactive"}
{"target": "CG34109", "dsRNA": "DRSC02225", "mean Z score": 1.76, "ATP luminescence, replicate 1": 78589, "ATP luminescence, replicate 2": 58109, "outcome": "active"}
{"target": "CG34109", "dsRNA": "DRSC26977", "mean Z score": 0.0479, "ATP luminescence, replicate 1": 61404, "ATP luminescence, replicate 2": 56208, "outcome": "inactive"}
{"target": "CG34109", "dsRNA": "DRSC30104", "mean Z score": 0.86, "ATP luminescence, replicate 1": 60742, "ATP luminescence, replicate 2": 58043, "outcome": "inactive"}
{"target": "Serinc", "dsRNA": "DRSC11296", "mean Z score": -0.305, "ATP luminescence, replicate 1": 27730, "ATP luminescence, replicate 2": 32033, "outcome": "inactive"}
{"target": "Alk", "dsRNA": "DRSC23342", "mean Z score": 0.198, "ATP luminescence, replicate 1": 52144, "ATP luminescence, replicate 2": 48732, "outcome": "inactive"}
{"target": "Alk", "dsRNA": "DRSC36972", "mean Z score": -0.126, "ATP luminescence, replicate 1": 45691, "ATP luminescence, replicate 2": 46211, "outcome": "inactive"}
{"target": "Alk", "dsRNA": "DRSC36973", "mean Z score": -0.00395, "ATP luminescence, replicate 1": 49195, "ATP luminescence, replicate 2": 46897, "outcome": "inactive"}
{"target": "PK1-R", "dsRNA": "DRSC16577", "mean Z score": -0.228, "ATP luminescence, replicate 1": 35699, "ATP luminescence, replicate 2": 53312, "outcome": "inactive"}
{"target": "CG33639", "dsRNA": "DRSC22820", "mean Z score": -0.733, "ATP luminescence, replicate 1": 39285, "ATP luminescence, replicate 2": 40322, "outcome": "inactive"}
{"target": "CG33639", "dsRNA": "DRSC23778", "mean Z score": -0.0172, "ATP luminescence, replicate 1": 53710, "ATP luminescence, replicate 2": 56053, "outcome": "inactive"}

Not a retest: entries from further up.
{"target": "Alk", "dsRNA": "DRSC36973", "mean Z score": -0.00395, "ATP luminescence, replicate 1": 49195, "ATP luminescence, replicate 2": 46897, "outcome": "inactive"}
{"target": "PK1-R", "dsRNA": "DRSC16577", "mean Z score": -0.228, "ATP luminescence, replicate 1": 35699, "ATP luminescence, replicate 2": 53312, "outcome": "inactive"}
